{"source": "paper PMC8184781", "about": "“A histone H3K4me1-specific binding protein is required for siRNA accumulation and DNA methylation at a subset of loci targeted by RNA-directed DNA methylation” (Nature Communications, 2021)", "binders": {"B1": {"name": "NRPE3B, a subunit exclusive to Pol V (protein, UniProt Q39212 1-319)", "chain": "MDGVTYQRFPTVKIRELKDDYAKFELRETDVSMANALRRVMISEVPTMAIHLVKIEVNSSVLNDEFIAQRLSLIPLTSERAMSMRFCQDCEDCNGDEHCEFCSVEFPLSAKCVTDQTLDVTSRDLYSADPTVTPVDFTSNSSTSDSSEHKGIIIAKLRRGQELKLKALARKGIGKDHAKWSPAATVTYMYEPDIIINEEMMNTLTDEEKIDLIESSPTKVFGIDPVTGQVVVVDPEAYTYDEEVIKKAEAMGKPGLIEIHPKHDSFVFTVESTGALKASQLVLNAIDILKQKLDAIRLSDNTVEADDQFGELGAHMREG"}}, "key": {"[1]": {"target": "T1, RDM15-3xFLAG (Arabidopsis thaliana) (UniProt Q8GUP3)", "T1 sequence": "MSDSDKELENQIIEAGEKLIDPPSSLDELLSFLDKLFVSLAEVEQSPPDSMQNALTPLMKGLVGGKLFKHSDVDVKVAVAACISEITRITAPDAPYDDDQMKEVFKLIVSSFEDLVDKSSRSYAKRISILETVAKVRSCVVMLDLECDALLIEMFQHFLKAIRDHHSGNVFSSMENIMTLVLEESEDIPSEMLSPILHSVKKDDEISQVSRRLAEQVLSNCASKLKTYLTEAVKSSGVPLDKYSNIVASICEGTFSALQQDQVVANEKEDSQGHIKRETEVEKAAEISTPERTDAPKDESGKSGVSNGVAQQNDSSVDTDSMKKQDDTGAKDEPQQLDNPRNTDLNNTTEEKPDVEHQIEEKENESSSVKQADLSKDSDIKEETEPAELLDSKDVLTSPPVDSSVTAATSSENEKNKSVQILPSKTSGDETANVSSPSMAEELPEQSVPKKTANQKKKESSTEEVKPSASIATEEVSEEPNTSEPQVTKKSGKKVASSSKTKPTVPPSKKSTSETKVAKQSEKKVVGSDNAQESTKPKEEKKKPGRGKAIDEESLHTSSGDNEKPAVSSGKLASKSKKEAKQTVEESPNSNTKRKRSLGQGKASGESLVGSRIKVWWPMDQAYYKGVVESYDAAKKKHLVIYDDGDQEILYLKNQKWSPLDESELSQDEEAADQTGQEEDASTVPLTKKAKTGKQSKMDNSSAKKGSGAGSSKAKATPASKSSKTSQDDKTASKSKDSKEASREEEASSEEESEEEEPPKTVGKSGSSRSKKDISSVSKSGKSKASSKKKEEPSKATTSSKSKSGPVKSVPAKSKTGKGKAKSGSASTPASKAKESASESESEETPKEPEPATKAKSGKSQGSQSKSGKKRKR", "assay": "affinity purification with mass spectrometry; anti-Flag M2 or anti-Myc immunoprecipitation from flower tissue of RDM15-3xFLAG/rdm15-3 or RDM15-3xMYC/rdm15-3 plants; LC-MS/MS; WT plants as control"}, "[2]": {"target": "T2, RDM15-3xMYC (Arabidopsis thaliana) (UniProt Q8GUP3)", "T2 sequence": "T1 sequence", "assay": "affinity purification with mass spectrometry; anti-Flag M2 or anti-Myc immunoprecipitation from flower tissue of RDM15-3xFLAG/rdm15-3 or RDM15-3xMYC/rdm15-3 plants; LC-MS/MS; WT plants as control"}}, "note": "Results are given in words; binding and its absence hold for the method and conditions named. Binding seen in cells or lysates may run through a third protein. A yes stands for co-enrichment or nearness to the bait. Other partners may have been found. Sequences can lack the tags named with a protein.", "data": [{"binder": "B1", "values": [{"measurement": "binding", "setting": "[1]", "result": "binds"}, {"measurement": "binding", "setting": "[2]", "result": "binds"}]}]}
